According to PMC7819943, “Rice protein-binding microarrays: a tool to detect cis-acting elements near promoter regions in rice”:
Some of the results follow.

These sequences were tested against T1, OsSMF1 (Oryza sativa, UniProt Q6ZLB0 1-436) (assay: protein-binding microarray (RPBM); PBS, 2% BSA, 51.3 ng/ul salmon testes DNA, 50 uM zinc acetate, 200 nM TF, 25 C, 1 h; high values mean tight binding). Conditions: protein: recombinant; tags: N-terminal polyhistidine and DsRed monomer fusion (pET32a); chain copies: 2; label: CyDye5-dUTP incorporated in the synthesized complementary strand; 3' TTTTT single-stranded linker to array surface; dsDNA, one strand shown.
T1 sequence: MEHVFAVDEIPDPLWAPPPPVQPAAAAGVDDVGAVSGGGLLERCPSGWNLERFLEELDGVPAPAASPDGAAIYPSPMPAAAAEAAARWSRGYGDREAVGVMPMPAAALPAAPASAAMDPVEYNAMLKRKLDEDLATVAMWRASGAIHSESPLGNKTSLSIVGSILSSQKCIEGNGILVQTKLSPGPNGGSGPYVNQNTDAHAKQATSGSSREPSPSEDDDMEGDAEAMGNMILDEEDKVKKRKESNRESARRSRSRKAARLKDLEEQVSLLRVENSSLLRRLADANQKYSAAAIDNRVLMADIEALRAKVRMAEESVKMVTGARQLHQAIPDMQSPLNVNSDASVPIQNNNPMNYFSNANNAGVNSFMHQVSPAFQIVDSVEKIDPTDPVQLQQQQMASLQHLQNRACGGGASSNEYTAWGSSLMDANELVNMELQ
Outline: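 For the binding signal, per-feature fluorescence intensity was read in arbitrary units on an Axon 4000B scanner. Before scanning, a 2% BSA-blocked custom Agilent array made double-stranded with Cy5-dUTP was washed after 1 h at 25 °C with 200 nM protein and 50 µM zinc acetate. The proteins were Ni–NTA-purified transcription factors with N-terminal polyhistidine and DsRed fusions, expressed in E. coli BL21-CodonPlus.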

Sequence	binding signal
TGGTTGGGCCTGTGCAGCATGGGTGTGCTGTTCAGTGTTGCGGAGTCACCTAGTGCAG	3410 fluorescence intensity (a.u.)
TAAAATATCACGTATACTAGTGATGTACTTGGGGTGATGCCGGAGTCACCTAGTGCAG	3160 fluorescence intensity (a.u.)
TCGGCCGTCGGATCGCGCGCGAAACGCTGTGATGTGCTGGCGGAGTCACCTAGTGCAG	4480 fluorescence intensity (a.u.)
TCTTCCCGAATACATTTCGTCGAACACCTTGTGTGCGTAACGGAGTCACCTAGTGCAG	19800 fluorescence intensity (a.u.)
AACCCAAAGCGAAACGTGGACATGTATGCACCATTGGATCCGGAGTCACCTAGTGCAG	3700 fluorescence intensity (a.u.)
ATCCTCGAGTCATGGCCTTTCTCGACCTCGTGTACTACACCGGAGTCACCTAGTGCAG	4120 fluorescence intensity (a.u.)
ATAACAACCAGATAGCTATTTAATAAATTTAAAGTAAAATCGGAGTCACCTAGTGCAG	38500 fluorescence intensity (a.u.)
ATTATGCATTATGAATATTTACATGACAGTATATTTAGGACGGAGTCACCTAGTGCAG	20500 fluorescence intensity (a.u.)
AGATCCTATAAACGCTCCTAAATCGCCACGCGGCAATCATCGGAGTCACCTAGTGCAG	4280 fluorescence intensity (a.u.)
GAAAACGGCGTCTGCCACGTGTACACCACTCCTCTGTCTACGGAGTCACCTAGTGCAG	23100 fluorescence intensity (a.u.)
CGCGTGTTCTCTTCTCCTGGCTCGATTGCGTGTTGTAGATCGGAGTCACCTAGTGCAG	4100 fluorescence intensity (a.u.)
GGAGCGGCCTAGGGTAGGCACACCGCGCACGTGGCGCCAACGGAGTCACCTAGTGCAG	7030 fluorescence intensity (a.u.)
AGAATCAATAATATAGTACATGCTTAAACGCAAATTTCTTCGGAGTCACCTAGTGCAG	3600 fluorescence intensity (a.u.)
TTTAACAAATGATTTTACTCATTCATCGTGTGACACATCCCGGAGTCACCTAGTGCAG	4250 fluorescence intensity (a.u.)
CACTCCGGGTCGCAATGATACCTTTGTGTCATCGGTCATGCGGAGTCACCTAGTGCAG	3300 fluorescence intensity (a.u.)
AAACAGCAGCAATGTCTCTTTTACGTGGACATCTCAATTACGGAGTCACCTAGTGCAG	3710 fluorescence intensity (a.u.)
AGTACTTAATGTGTCTAAATTCGTACTGCCCAATAATCTGCGGAGTCACCTAGTGCAG	35700 fluorescence intensity (a.u.)
CTCGCGTCCGCTGCCTATTTCTGCCTCCGCCACGCCCACGCGGAGTCACCTAGTGCAG	3430 fluorescence intensity (a.u.)
TTTCTCTTATTACGGGTAAAATACAATCAATTCTTGACTGCGGAGTCACCTAGTGCAG	36800 fluorescence intensity (a.u.)
GGACTGCGGAACACTCCCTGTTTGTCGCGAGTTAAGTTTTCGGAGTCACCTAGTGCAG	15500 fluorescence intensity (a.u.)
GCGATGGGTGCGGTGAACAAGAGGGAGAGTAGGAGCGGGACGGAGTCACCTAGTGCAG	11900 fluorescence intensity (a.u.)

Looked up above.
Entry for ATCCTCGAGTCATGGCCTTTCTCGACCTCGTGTACTACACCGGAGTCACCTAGTGCAG under binding signal: 4120 fluorescence intensity (a.u.)
Entry for AGTACTTAATGTGTCTAAATTCGTACTGCCCAATAATCTGCGGAGTCACCTAGTGCAG under binding signal: 35700 fluorescence intensity (a.u.)

Additional records follow.

Sequence	binding signal
GTTTAGTCCATCTTTGTCGATTTGCACCGTCACTGTAAGACGGAGTCACCTAGTGCAG	4010 fluorescence intensity (a.u.)
ATAGCGAAAACACAACTCTCATACTTGCGAACCTCTCCATCGGAGTCACCTAGTGCAG	3150 fluorescence intensity (a.u.)
CTGCGGCCATCGTCCTGTTCCTCTTGGCCTCGCGTGCAGTCGGAGTCACCTAGTGCAG	3280 fluorescence intensity (a.u.)
AGACTTCCACCTCACCCCTACCCCGACCGTGCACCAACCCCGGAGTCACCTAGTGCAG	5610 fluorescence intensity (a.u.)
ATCACGTAACATCCAAACGACATGACTCACTCTGATCCTACGGAGTCACCTAGTGCAG	5600 fluorescence intensity (a.u.)
CGACAAATCCACCTTGGCCTGCACTTGATCGAGCCTCTCTCGGAGTCACCTAGTGCAG	3570 fluorescence intensity (a.u.)
AAGCTAGCGGTCACCCAGTCAGCTCACCCCGAGACGCACCCGGAGTCACCTAGTGCAG	4400 fluorescence intensity (a.u.)
CACCGTCGCCGGGACACACGCCGCCGCACCGCCTCCACCACGGAGTCACCTAGTGCAG	3330 fluorescence intensity (a.u.)
ACGAAATCAGGCATCAGCATTTGTTCTTTGAATCAGTTCTCGGAGTCACCTAGTGCAG	3660 fluorescence intensity (a.u.)
CAACAACACAACTGCGATATGGTCGTGATTTACGTCTGAACGGAGTCACCTAGTGCAG	35700 fluorescence intensity (a.u.)
GCGACGCTACCATTTCCGTCCGTTTGTTCAACCAACTCTCCGGAGTCACCTAGTGCAG	21100 fluorescence intensity (a.u.)
AGACCGTTTTGATGATTCATGTTGTATTTATTGGTACCCTCGGAGTCACCTAGTGCAG	4620 fluorescence intensity (a.u.)
TTACAGTGGGGCACTTGGTACAAGGCTCTCAGTCGATGCGCGGAGTCACCTAGTGCAG	17900 fluorescence intensity (a.u.)
GTCGTGACTCGCTTTCGCCGGCAAGCCCTGTTCATCGGCGCGGAGTCACCTAGTGCAG	18300 fluorescence intensity (a.u.)
AACAGTAACCTTGCTGCAGATCAAGTCATGGCTGACTTTGCGGAGTCACCTAGTGCAG	3220 fluorescence intensity (a.u.)
GCCGCCCCGATCTCTTCCCTCCGGCGGCCGCCATGTCATCCGGAGTCACCTAGTGCAG	6840 fluorescence intensity (a.u.)
CGTCCCAACCGGTAGTCCAGTTGACAGTTGGCACCCGATGCGGAGTCACCTAGTGCAG	3940 fluorescence intensity (a.u.)
AGCGGGTTAACATAGGATCCTGCGGCTGGACACGTGGCGGCGGAGTCACCTAGTGCAG	27800 fluorescence intensity (a.u.)
AATCTCACCCATCCACGTGTCCCCAGATCTCATCCCCATCCGGAGTCACCTAGTGCAG	18700 fluorescence intensity (a.u.)
CCGTCCTCCTGCCACTGTGGTGGCTCGGTGCTGACGTGGCCGGAGTCACCTAGTGCAG	35600 fluorescence intensity (a.u.)
CGTTGAATAAAAGCTTTGGAACCACACGTCCGACGCACGCCGGAGTCACCTAGTGCAG	3540 fluorescence intensity (a.u.)
